Values of other authors in US20250090640A1, “METHOD OF IMPROVING THE VIABILITY OF A DENTAL IMPLANT” (priority 2023, published 2025).
Part of at least one peptide drawing is inferred or uncertain, most often the ends.

Test system: experimental periodontitis
Settings: mouse model of periodontal disease; cited from earlier work

CC[C@H](C)[C@H](NC(=O)[C@H](CO)NC(=O)[C@H](CCCCN)NC(=O)CNC(=O)[C@H](CCCCN)NC(=O)[C@H](CC(=O)O)NC(=O)[C@H](Cc1c[nH]cn1)NC(=O)[C@H](CC(C)C)NC(=O)[C@H](CC(C)C)NC(=O)[C@H](CCC(N)=O)NC(=O)[C@H](Cc1c[nH]cn1)NC(=O)[C@H](CCC(=O)O)NC(=O)[C@H](CO)NC(=O)[C@@H](NC(=O)[C@H](C)N)C(C)C)C(=O)N[C@@H](CCC(N)=O)C(=O)N[C@@H](CC(=O)O)C(=O)N[C@@H](CC(C)C)C(=O)N[C@@H](CCCNC(=N)N)C(=O)N[C@@H](CCCNC(=N)N)C(=O)N[C@@H](CCCNC(=N)N)C(=O)N[C@@H](CCC(=O)O)C(=O)N[C@@H](CC(C)C)C(=O)N[C@@H](CC(C)C)C(=O)N[C@@H](CCC(=O)O)C(=O)N[C@@H](CCCCN)C(=O)N[C@@H](CC(C)C)C(=O)N[C@@H](CC(C)C)C(=O)NC(C)(C)C(=O)N[C@@H](CCCCN)C(=O)N[C@@H](CC(C)C)C(=O)N[C@@H](Cc1c[nH]cn1)C(=O)N[C@H](C(=O)N[C@@H](C)C(N)=O)[C@@H](C)O [abaloparatide, [Glu^22,25, Leu^23,28,31, Aib^29, Lys^26,30]hPTHrP(1-34)NH2]
effect on alveolar bone in experimental periodontitis: may protect alveolar bone
